Drawing on the supplement of paper PMC11150407, this text covers cell viability for 102 molecules.

SMILES strings stand for the structures. Screen size: about 3,000 compounds; about 45 (2%) showed an effect of 50% or more. The list shows a part of the results.

A word on the cell viability: it is a read-out of living cells in per cent, often relative to untreated cells.

In this assay the test system is MOLM1 and UCSD/AML1 (averaged). Put plainly: cell viability relative to DMSO control (POC); higher = less growth inhibition. The conditions noted are these: 1 µM; 72 h. As for the experimental part:
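Primary viability screen in the 3q26 EVI1-high AML cell lines MOLM1 and UCSD/AML1, compounds at 1 uM for 72 h. ATP CellTiter-Glo read-out given as percent viable over DMSO control (POC), averaged over duplicates. This mapping covers the TimTec NDL-3000 natural derivative library, whose compounds are identified by TimTec catalogue codes (ST...).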
`Cn1c(=O)cc(O)c2ccccc21`: the cell viability amounted to 109%. Consider `COC(=O)c1cc2c([nH]c3ccccc32)c(C)n1`, for which the cell viability turned out to be 90%.

Turning to `CC(=O)OC1CCC2(C)C3CCC4(C)C(CC5CCCCC54C(C)=O)C3CC3OC32C1` (configuration not stated), the cell viability is 89.4%. For `Cc1ccc(-n2c(SCC(=O)Nc3cccc(Br)c3)nc3c(=O)[nH]cnc32)cc1`, the cell viability is 99.5%. Then `COc1ccc(C(=O)NCCOc2ccc(C)cc2)cc1OC`, with 101%; and `O=C(CSc1nc2ccccc2c(=O)[nH]1)NCCCc1ccccc1`, with 102%. On to `COc1ccc(C(=O)CCS(=O)(=O)c2ccc(Cl)cc2)cc1OC`, for which the cell viability was determined as 67.8%.

`NC(=O)NC(Cc1c[nH]c2ccccc12)C(=O)O` (configuration not stated): the cell viability is 98.1%. Then `O=c1c(-c2ccccc2)coc2c(CN3CCOCC3)c(O)ccc12`, with 100%. On to `Cc1cccc(NC(=O)CSc2nc3ccccc3c(=O)[nH]2)c1C`, for which the cell viability was determined as 105%.

In the case of `O=C1ON=C(c2ccccc2)/C1=C/c1ccc(O)cc1`, the cell viability was 100%. On to `N[C@@H](Cc1ccc(Cl)cc1)C(=O)O`, for which the cell viability stood at 101%.

Take `COc1cc2oc(=O)c(CC(=O)NCc3ccc(Cl)cc3)c(C)c2cc1OC`: the cell viability was found to be 97.9%.

With `COc1ccc2c(c1)OC(c1ccccc1)CC2=O` (configuration not stated), the cell viability is 105%. Then `CCOc1cc(C2C(C(=O)OCCc3ccccc3)=C(C)NC3=C2C(=O)CC(C)(C)C3)cc(Br)c1O` (configuration not stated), with 94.9%. In the case of `O=c1oc2cc(O)ccc2cc1-c1ccc(Br)cc1`, the cell viability turned out to be 104%.

Regarding `COc1ccc(C(=O)Nc2ccc(-n3nc(C)cc3Cl)cc2)cc1OC`, the cell viability is 99.9%. In the case of `COC(=O)C(NS(=O)(=O)c1ccc2ccccc2c1)C(O)c1ccccc1` (configuration not stated), the cell viability stood at 97.1%. Regarding `CC(=O)C12CCCCC1CC1C3CC4OC45CC(O)CCC5(C)C3CCC12C` (configuration not stated), the cell viability came to 96.3%. With `O=C(/C=C/c1cccs1)c1ccc2c(c1)OCO2`, the cell viability worked out at 97.2%.

Turning to `COc1ccc2[nH]c(C)c(CCNC(=O)C3CCCCC3C(=O)OCC(F)(F)F)c2c1` (configuration not stated), the cell viability came to 98.3%. Take `COc1ccc2c(c1OC)C(=O)OC2C[N+](=O)[O-]` (configuration not stated): the cell viability was found to be 92.7%. As for `O=C(O)/C(=C/C(=O)c1ccccc1)Nc1ccc(OC(F)(F)F)cc1`, the figure is 108%. As to `CCOc1ccc(-c2cc(=O)c3cc(C)cc(C)c3o2)cc1OC`, the cell viability came to 97.3%. As to `CC(=O)NC1C(OCc2ccccc2)OC(CO)C(O)C1O` (configuration not stated), the cell viability was found to be 112%.

As for `COC(=O)C1CC23CCCN4CCC5(c6ccccc6NC15CC2)C43` (configuration not stated), the cell viability was 98.1%. On to `COc1ccc(/C=C/C(=O)Oc2ccc(C(C)C)cc2)c(OC)c1`, for which the cell viability turned out to be 101%. In the case of `Cc1ccc(CNC(=O)CSc2nc3c(=O)[nH]cnc3n2-c2ccc(C)cc2)cc1`, the cell viability was 119%. In the case of `COc1ccc(Cl)cc1NC(=O)CSc1nc2c(=O)[nH]cnc2n1CC1CCCO1` (configuration not stated), the cell viability came to 93%. Consider `Nc1cc(=O)[nH]c(SCC(=O)Nc2c(Cl)cccc2Cl)n1`, for which the cell viability came to 82.7%. With `CCCCCCCCC(CCCCCCCCCCC(=O)O)C(=O)O` (configuration not stated), the cell viability came to 99.5%. As to `COc1cc(-c2nnc(SCC(=O)N(C)C)n2-c2ccc3c(c2)OCO3)cc(OC)c1OC`, the cell viability stood at 98.8%.

Regarding `Cc1ccc2c(CN3CCN(C(=O)OC(C)(C)C)CC3)cc(=O)oc2c1`, the cell viability was 14.9%.

With `O=C(NCCc1c[nH]c2ccccc12)OCc1ccc([N+](=O)[O-])cc1`, the cell viability was determined as 98.3%.

For the molecule `CCOC(=O)/C(C#N)=C/c1ccc(N(CC)CC)cc1`, the cell viability is 105%.

Turning to `COc1ccc(CNC(=O)c2n[nH]c(=O)c3ccccc23)cc1OC`, the cell viability was found to be 90%. Then `Cc1cc(I)ccc1NC(=O)C(Cc1c[nH]c2ccccc12)NC(=O)OCc1ccccc1` (configuration not stated), with 80.3%. Turning to `COc1ccc(C)cc1NC(=O)CSc1nc2c(=O)[nH]cnc2n1C`, the cell viability came to 98.4%. Take `COc1ccc(C(=O)Nc2c(OC)c(OC)cc3c2C(=O)OC3)cc1OC`: the cell viability was 92%. In the case of `CCCCCOc1ccc(C2=NOC(=O)/C2=C\c2cc([N+](=O)[O-])ccc2O)cc1`, the cell viability worked out at 92.2%. For the molecule `CCC1C/C(=C\c2ccc(OC)cc2)C(=O)/C(=C/c2ccc(OC)cc2)C1` (configuration not stated), the cell viability turned out to be 12.8%. For the molecule `N#C/C(=C\c1ccc(-c2cc(C(=O)O)ccc2Cl)o1)C(=O)NCCc1c[nH]c2ccccc12`, the cell viability was 112%.

On to `CCn1c(=O)c(-c2ccc3ccccc3n2)cc2cc(Cl)ccc21`, for which the cell viability came to 105%. As for `COc1cccc(NC(=O)CSc2nc3c(=O)[nH]cnc3n2-c2ccc(C)cc2)c1`, the figure is 96.5%; as for `O=C(Oc1ccc2oc(-c3ccco3)cc(=O)c2c1)c1cccs1`, 106%; as for `Oc1ccc(C2NCCc3c2[nH]c2ccccc32)cc1` (configuration not stated), 89.9%. In the case of `Cc1ccc(NC(=O)CN2C(=O)N/C(=C/c3cc4c(cc3Cl)OCO4)C2=O)cc1`, the cell viability was found to be 91.5%. Consider `Cc1ccc(OCCSc2ncnc3nc[nH]c23)cc1C`, for which the cell viability is 99.8%. Regarding `O=C(Nc1ccccc1F)C1=Cc2ccccc2OC1`, the cell viability is 91.1%. As to `Cc1[nH]c2ccc(OCc3ccccc3)cc2c1CCNC(=O)c1ccnn1C`, the cell viability was determined as 92.8%.

`COc1cc(C(=O)Nc2ccc(CN3CCCC3)cc2)cc(OC)c1OC`: the cell viability is 87.4%. As for `CCCNC(=O)c1cc(=O)n(CC(=O)Nc2ccc(Br)cc2)c2ccccc12`, the figure is 107%. As for `CO[C@@H]1CC2C3CC=C4CC(O[Si](C)(C)C(C)(C)C)CCC4(C)C3CCC2(C)C1C(C)=O` (some centres not stated), the figure is 94.4%; as for `CCCCCOc1ccc(C2=NOC(=O)/C2=C\c2ccc(OCCCC)cc2)cc1`, 99.1%; as for `O=C(OC[C@@H]1O[C@@](O)(COC(=O)c2cccnc2)[C@H](OC(=O)c2cccnc2)[C@H]1OC(=O)c1cccnc1)c1cccnc1`, 90.2%. As for `COC1CCCC(C)O1` (configuration not stated), the figure is 65.8%; as for `COc1ccc(CNC(=O)C2Cc3ccccc3CN2S(=O)(=O)c2cccs2)cc1` (configuration not stated), 97.3%; as for `Cc1ccc(NC(=O)c2cc3cc(Cl)ccc3oc2=N)cc1C`, 93.6%.

Take `Cc1ccc(NC(=O)COc2ccc3c(=O)c(Oc4ccc(C(C)(C)C)cc4)coc3c2)cc1`: the cell viability is 102%. With `COc1cc(NS(=O)(=O)c2ccc(N/C=C3\C(=O)C(O)=C(C(C)C)c4cc(C)c(-c5c(C)cc6c(c5O)/C(=C/Nc5ccc(S(=O)(=O)Nc7cc(OC)nc(OC)n7)cc5)C(=O)C(O)=C6C(C)C)c(O)c43)cc2)nc(OC)n1`, the cell viability worked out at 101%. As for `COc1ccc(C(NC(=O)C(C)C)c2nccc3cc(OC)c(OC)cc23)cc1OC` (configuration not stated), the figure is 90.8%; as for `COc1cc(OC)cc(C(=O)Nc2ccccc2S(=O)(=O)N2CCCC2OC(C)=O)c1` (configuration not stated), 92.3%; as for `O=c1cc(O)c2cc(Cl)ccc2o1`, 101%. Regarding `COc1ccc2c(=O)cc(-c3ccccc3)oc2c1OC`, the cell viability was found to be 94%. For the molecule `Cc1ccc(-c2cc(=O)c3cc(Cl)c(C)cc3o2)cc1`, the cell viability came to 116%.

`CCOc1ccc(/C=N/OC(=O)/C=C\c2ccccc2)cc1`: the cell viability was determined as 102%. In the case of `COc1ccc(OCc2cc(C=O)ccc2OC)cc1`, the cell viability came out at 107%. Then `COc1ccc(CCNC(=O)C2CCCCC2C(=O)O)cc1OC` (configuration not stated), with 102%; and `Cc1ccc2c(CN3CCN(Cc4cccc(C#N)c4)CC3)cc(=O)oc2c1`, with 93.6%. As to `CC(=O)OC1CCC2(C)C(CCC3(C)C2C(=O)C=C2C4CC(C)(C(=O)Nc5ccccc5O)CCC4(C)CCC23C)C1(C)C` (configuration not stated), the cell viability was determined as 93.9%. Turning to `O=c1cc(-c2ccc(Br)cc2)oc2ccc(Cl)cc12`, the cell viability was 96%. For `CCOC(=O)c1sc(N2N=C(C)/C(=C\c3cc4c(cc3OC)OCO4)C2=O)nc1C`, the cell viability stood at 97.3%. Take `COC(=O)C1Cc2c([nH]c3ccccc23)CN1` (configuration not stated): the cell viability came to 107%. Regarding `CCOC(=O)C(Cc1c[nH]c2ccccc12)NC(=O)C(F)(F)C(F)F` (configuration not stated), the cell viability was 94.9%.

For `CCOC(=O)CCC(=O)Nc1ccc(C(=O)OCC)cc1`, the cell viability was 105%. Regarding `CCCOc1ccc(NCCC(=O)c2ccc3c(c2)OCO3)cc1`, the cell viability was 98.9%. In the case of `COC(=O)c1ccc2c(c1)C(=O)/C(=C/c1ccc(OCCC(C)C)cc1)O2`, the cell viability worked out at 100%. Consider `O=C(NC1(C(F)(F)F)C(=O)Nc2c1c(=O)[nH]c(=O)n2-c1ccc(F)cc1)c1cccc(Cl)c1` (configuration not stated), for which the cell viability turned out to be 105%. On to `CCC(CC)c1nc(Nc2ccc(C)c(Cl)c2)c2ccccc2n1`, for which the cell viability was determined as 72.3%. For `Cc1cc2c(C(C)C)c(O)c(O)c(/C=N\N3CCCC3Cc3ccco3)c2c(O)c1-c1c(C)cc2c(C(C)C)c(O)c(O)c(/C=N\N3C(C)CCC3Cc3ccco3)c2c1O` (configuration not stated), the cell viability turned out to be 91.5%. For the molecule `CC(=O)c1c(C)n(CCOc2ccc(Cl)cc2C)c2ccc(O)cc12`, the cell viability is 86.6%.

As to `COc1ccc(OC)c2c(C)cc(SCC(=O)c3ccc4c(c3)OCCO4)nc12`, the cell viability was 101%. Take `COc1ccc(C(=O)NC(c2ccccc2)c2ccc(Cl)cc2)cc1OC` (configuration not stated): the cell viability stood at 75.6%. Then `O=C(NC(Cc1c[nH]c2ccccc12)C(=O)O)c1ccc(C23CC4CC(CC(C4)C2)C3)cc1` (configuration not stated), with 93.7%; and `COc1ccc(OC)c(/C=C/C(=O)c2ccc3c(c2)OCO3)c1`, with 86.1%.

As to `CCOC(=O)C(Cc1c[nH]c2ccccc12)NC(=O)c1ccc([N+](=O)[O-])cc1Cl` (configuration not stated), the cell viability is 92.1%. As for `O=C(COCC1CCCN2CCCCC12)Oc1ccccc1` (configuration not stated), the figure is 99.7%; as for `CCOc1ccc(-c2nc(CSc3nc4ccccc4c(=O)[nH]3)c(C)o2)cc1`, 103%; as for `CN(CCO)Cc1c(NC(=O)c2ccccc2)sc2c1CCCC2`, 85.2%. Then `O=C(N/N=C/c1cc(N=Nc2cccc(C(F)(F)F)c2)ccc1O)c1ccc2c(c1)OCO2`, with 21.3%; and `CCCCCCCOC(=O)COCC1CCC[N+]2(C)CCCCC12` (configuration not stated), with 95.1%; and `Cc1cc2c(C(C)C)c(O)c(O)c(C=Nc3ccc(OCC(N)=O)cc3)c2c(O)c1-c1c(C)cc2c(C(C)C)c(O)c(O)c(C=Nc3ccc(OCC(N)=O)cc3)c2c1O`, with 109%. As for `CC(C)OC(=O)C1=C(N)Oc2c(oc(CO)cc2=O)C1c1cccnc1` (configuration not stated), the figure is 106%. In the case of `O=c1[nH]c(NCCO)c(I)c(=O)[nH]1`, the cell viability came to 107%.

On to `O=C(COc1cccc(Cl)c1)NNC(=O)c1cc2cc(Br)ccc2oc1=O`, for which the cell viability worked out at 110%. On to `COc1ccc2c(CN3CCN(c4ccccc4OC)CC3)cc(=O)oc2c1`, for which the cell viability came out at 97.8%. `Cc1cc(C(F)(F)F)nc2sc(C(=O)c3ccc4c(c3)OCO4)c(N)c12`: the cell viability stood at 105%. Consider `COc1cc(OC)cc(C(=O)c2ccc(C(=O)NC3(c4ccccc4)CC3)cc2)c1`, for which the cell viability was 101%.

For `O=C(O)C1Cc2c([nH]c3ccccc23)C(C(F)(F)C(F)(F)C(F)(F)C(F)F)N1` (configuration not stated), the cell viability was 104%. Regarding `CCOC(=O)c1sc(NC(=O)/C=C/c2ccccc2)c(C(=O)OCC)c1C`, the cell viability came to 96%. Take `CC1CCC(C(C)C)C(OC(=O)C(=O)c2ccccc2)C1` (configuration not stated): the cell viability was 87.7%. With `CCOC(=O)c1c(C)n(CCOCc2ccccc2Cl)c2c1cc(O)c1ccccc12`, the cell viability came to 92.2%.
